{
  "source": "patent US20250073355A1",
  "about": "“CD44-BINDING PEPTIDE REAGENTS AND METHODS” (THE REGENTS OF THE UNIVERSITY OF MICHIGAN, priority 2021, published 2025)",
  "test_system": "human HCC specimens",
  "test": "Peptide validation in human HCC specimens ex vivo (immunofluorescence)",
  "experimental": "A tissue microarray (TMA) of human HCC was generated to investigate specific binding by the CD44 peptide to human HCC. Formalin-fixed, paraffin-embedded (FFPE) sections of human liver were obtained from the archived tissue bank in the Department of Pathology. The specimens were washed 3× in xylene for 3 min, 100% ethanol for 3 min, 95% ethanol for 3 min, 70% ethanol for 3 min, rinsed in H2O for 2 min. Antigen unmasking was performed by boiling the slides in 10 mM sodium citrate buffer with 0.05% Tween at pH 6.0 for 15 min. The slides were cooled to RT, and were washed in H2O 3× for 5 min. Blocking was performed with DAKO protein blocking agent (X0909, DAKO) for 1 hour at RT. The peptides at 1 μM concentration were incubated for 10 min at RT. The sections were washed 3× in PBST for 3 min, and incubated with 400 μL at 1:500 dilution of recombinant anti-CD44 (#ab189524, Abcam) overnight at 4° C. The sections were then washed 3× in PBST for 5 min. A 1:500 dilution of AF488-labeled secondary antibody (goat anti rabbit Alexa Fluor®488) was added to each section and incubated for 1 hour at RT. The secondary antibody solution was removed and washed 3× with PBST for 5 min. The sections were then mounted with ProLong Gold reagent containing DAPI (Invitrogen). The fluorescence images of each specimen were collected using confocal microscopy (SP8, Leica), and the mean fluorescence intensity from each image was measured from 3 boxes with dimensions of 20×20 μm^2 using custom MATLAB software. Regions of saturated image intensities were avoided.",
  "data": [
    {"smiles": "CC(C)C[C@H](NC(=O)[C@H](Cc1ccc(O)cc1)NC(=O)[C@H](CO)NC(=O)[C@H](Cc1c[nH]c2ccccc12)NC(=O)CNC(=O)[C@H](CCCCN)NC(=O)[C@@H](N)Cc1c[nH]c2ccccc12)C(=O)N[C@@H](Cc1c[nH]c2ccccc12)C(=O)N[C@H](C(=O)N[C@@H](CCC(N)=O)C(=O)N[C@@H](CCC(N)=O)C(=O)N[C@@H](C)C(=O)NCC(=O)NCC(=O)NCC(=O)N[C@@H](CO)C(=O)N[C@@H](CSC1CC(=O)N(CCNC(=O)CCCCCN2C(=CC=C3CCCC(C=CC4=[N+](CCCCS(=O)(=O)[O-])c5ccc(S(=O)(=O)O)cc5C4(C)C)=C3Oc3ccc(S(=O)(=O)O)cc3)C(C)(C)c3cc(S(=O)(=O)O)ccc32)C1=O)C(N)=O)[C@@H](C)O", "note": "(stereo partly drawn) [WKG*-IRDye800]", "values": [
      {"measurement": "AUC (ROC)", "setting": "distinguish HCC from cirrhosis", "value": 0.79},
      {"measurement": "sensitivity (ROC)", "setting": "distinguish HCC from cirrhosis", "value": 87, "unit": "%"},
      {"measurement": "specificity (ROC)", "setting": "distinguish HCC from cirrhosis", "value": 69, "unit": "%"},
      {"measurement": "AUC (ROC)", "setting": "distinguish HCC from non-HCC", "value": 0.87},
      {"measurement": "sensitivity (ROC)", "setting": "distinguish HCC from non-HCC", "value": 87, "unit": "%"},
      {"measurement": "specificity (ROC)", "setting": "distinguish HCC from non-HCC", "value": 79, "unit": "%"}
    ]}
  ]
}
